Assay results reported in article doi:10.1101/2021.07.20.453048.

Sequences of proteins named here, by UniProt entry; tags and fusion partners are left off.
UniProt Q1MSJ5: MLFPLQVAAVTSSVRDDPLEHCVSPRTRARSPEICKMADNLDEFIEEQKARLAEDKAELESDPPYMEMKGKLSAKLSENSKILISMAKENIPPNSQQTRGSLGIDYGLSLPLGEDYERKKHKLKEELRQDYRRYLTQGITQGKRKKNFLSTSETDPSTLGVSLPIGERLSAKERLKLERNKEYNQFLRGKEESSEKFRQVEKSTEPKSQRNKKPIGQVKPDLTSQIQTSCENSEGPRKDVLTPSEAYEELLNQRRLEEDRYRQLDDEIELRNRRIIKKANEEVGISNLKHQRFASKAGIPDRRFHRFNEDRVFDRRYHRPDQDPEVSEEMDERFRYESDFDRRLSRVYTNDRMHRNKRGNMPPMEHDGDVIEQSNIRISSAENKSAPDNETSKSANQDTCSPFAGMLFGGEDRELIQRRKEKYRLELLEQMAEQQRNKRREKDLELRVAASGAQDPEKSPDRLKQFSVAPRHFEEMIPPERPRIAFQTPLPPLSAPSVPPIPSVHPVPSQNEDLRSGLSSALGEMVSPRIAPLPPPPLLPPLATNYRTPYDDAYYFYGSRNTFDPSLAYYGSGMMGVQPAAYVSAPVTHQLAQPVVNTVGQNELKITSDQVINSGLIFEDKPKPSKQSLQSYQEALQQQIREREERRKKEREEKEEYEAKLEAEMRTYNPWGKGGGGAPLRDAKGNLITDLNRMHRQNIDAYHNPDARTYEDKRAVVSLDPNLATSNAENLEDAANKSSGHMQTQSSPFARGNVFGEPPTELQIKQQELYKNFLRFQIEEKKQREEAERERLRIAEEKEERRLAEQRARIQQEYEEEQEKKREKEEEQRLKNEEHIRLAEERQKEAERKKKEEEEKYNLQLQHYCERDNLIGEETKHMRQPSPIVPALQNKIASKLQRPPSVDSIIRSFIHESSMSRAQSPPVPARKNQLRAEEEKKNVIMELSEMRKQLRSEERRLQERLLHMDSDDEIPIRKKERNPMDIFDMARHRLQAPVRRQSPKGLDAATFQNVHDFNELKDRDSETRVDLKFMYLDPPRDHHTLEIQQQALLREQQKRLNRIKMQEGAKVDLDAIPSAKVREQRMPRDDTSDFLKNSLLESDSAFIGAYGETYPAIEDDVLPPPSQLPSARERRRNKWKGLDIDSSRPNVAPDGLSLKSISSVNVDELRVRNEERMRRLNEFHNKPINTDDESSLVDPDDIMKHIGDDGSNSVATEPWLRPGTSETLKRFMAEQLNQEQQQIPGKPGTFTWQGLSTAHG
UniProt P27816: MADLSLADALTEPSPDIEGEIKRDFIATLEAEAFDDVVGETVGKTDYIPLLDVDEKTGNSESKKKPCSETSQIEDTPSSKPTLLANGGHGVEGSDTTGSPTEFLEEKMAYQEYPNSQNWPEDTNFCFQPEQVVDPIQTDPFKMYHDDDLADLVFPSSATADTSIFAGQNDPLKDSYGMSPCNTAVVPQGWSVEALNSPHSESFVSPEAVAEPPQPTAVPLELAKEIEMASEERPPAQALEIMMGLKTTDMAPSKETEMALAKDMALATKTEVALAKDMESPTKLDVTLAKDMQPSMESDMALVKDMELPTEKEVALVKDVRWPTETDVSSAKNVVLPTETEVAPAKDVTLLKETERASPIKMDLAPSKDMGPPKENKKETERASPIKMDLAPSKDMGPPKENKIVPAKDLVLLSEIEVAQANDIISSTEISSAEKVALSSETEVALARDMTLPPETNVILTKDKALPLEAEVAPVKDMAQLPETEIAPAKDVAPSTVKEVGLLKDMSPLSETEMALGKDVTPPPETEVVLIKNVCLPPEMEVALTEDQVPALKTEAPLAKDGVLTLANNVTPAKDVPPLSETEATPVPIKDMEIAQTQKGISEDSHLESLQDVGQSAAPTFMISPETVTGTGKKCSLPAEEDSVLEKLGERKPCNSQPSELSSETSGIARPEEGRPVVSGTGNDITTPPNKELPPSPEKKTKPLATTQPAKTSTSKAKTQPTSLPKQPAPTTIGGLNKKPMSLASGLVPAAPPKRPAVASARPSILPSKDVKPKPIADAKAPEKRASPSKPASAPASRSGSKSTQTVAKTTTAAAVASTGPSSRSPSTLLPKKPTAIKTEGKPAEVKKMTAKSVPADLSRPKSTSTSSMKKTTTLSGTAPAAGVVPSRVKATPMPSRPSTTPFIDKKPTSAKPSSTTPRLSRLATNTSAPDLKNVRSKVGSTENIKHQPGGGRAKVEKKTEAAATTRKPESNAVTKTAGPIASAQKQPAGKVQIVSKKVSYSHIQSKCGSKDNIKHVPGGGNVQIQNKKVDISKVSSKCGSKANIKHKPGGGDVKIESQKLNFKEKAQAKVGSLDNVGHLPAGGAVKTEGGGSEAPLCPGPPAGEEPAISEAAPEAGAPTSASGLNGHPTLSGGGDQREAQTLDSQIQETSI
UniProt Q8N4C6: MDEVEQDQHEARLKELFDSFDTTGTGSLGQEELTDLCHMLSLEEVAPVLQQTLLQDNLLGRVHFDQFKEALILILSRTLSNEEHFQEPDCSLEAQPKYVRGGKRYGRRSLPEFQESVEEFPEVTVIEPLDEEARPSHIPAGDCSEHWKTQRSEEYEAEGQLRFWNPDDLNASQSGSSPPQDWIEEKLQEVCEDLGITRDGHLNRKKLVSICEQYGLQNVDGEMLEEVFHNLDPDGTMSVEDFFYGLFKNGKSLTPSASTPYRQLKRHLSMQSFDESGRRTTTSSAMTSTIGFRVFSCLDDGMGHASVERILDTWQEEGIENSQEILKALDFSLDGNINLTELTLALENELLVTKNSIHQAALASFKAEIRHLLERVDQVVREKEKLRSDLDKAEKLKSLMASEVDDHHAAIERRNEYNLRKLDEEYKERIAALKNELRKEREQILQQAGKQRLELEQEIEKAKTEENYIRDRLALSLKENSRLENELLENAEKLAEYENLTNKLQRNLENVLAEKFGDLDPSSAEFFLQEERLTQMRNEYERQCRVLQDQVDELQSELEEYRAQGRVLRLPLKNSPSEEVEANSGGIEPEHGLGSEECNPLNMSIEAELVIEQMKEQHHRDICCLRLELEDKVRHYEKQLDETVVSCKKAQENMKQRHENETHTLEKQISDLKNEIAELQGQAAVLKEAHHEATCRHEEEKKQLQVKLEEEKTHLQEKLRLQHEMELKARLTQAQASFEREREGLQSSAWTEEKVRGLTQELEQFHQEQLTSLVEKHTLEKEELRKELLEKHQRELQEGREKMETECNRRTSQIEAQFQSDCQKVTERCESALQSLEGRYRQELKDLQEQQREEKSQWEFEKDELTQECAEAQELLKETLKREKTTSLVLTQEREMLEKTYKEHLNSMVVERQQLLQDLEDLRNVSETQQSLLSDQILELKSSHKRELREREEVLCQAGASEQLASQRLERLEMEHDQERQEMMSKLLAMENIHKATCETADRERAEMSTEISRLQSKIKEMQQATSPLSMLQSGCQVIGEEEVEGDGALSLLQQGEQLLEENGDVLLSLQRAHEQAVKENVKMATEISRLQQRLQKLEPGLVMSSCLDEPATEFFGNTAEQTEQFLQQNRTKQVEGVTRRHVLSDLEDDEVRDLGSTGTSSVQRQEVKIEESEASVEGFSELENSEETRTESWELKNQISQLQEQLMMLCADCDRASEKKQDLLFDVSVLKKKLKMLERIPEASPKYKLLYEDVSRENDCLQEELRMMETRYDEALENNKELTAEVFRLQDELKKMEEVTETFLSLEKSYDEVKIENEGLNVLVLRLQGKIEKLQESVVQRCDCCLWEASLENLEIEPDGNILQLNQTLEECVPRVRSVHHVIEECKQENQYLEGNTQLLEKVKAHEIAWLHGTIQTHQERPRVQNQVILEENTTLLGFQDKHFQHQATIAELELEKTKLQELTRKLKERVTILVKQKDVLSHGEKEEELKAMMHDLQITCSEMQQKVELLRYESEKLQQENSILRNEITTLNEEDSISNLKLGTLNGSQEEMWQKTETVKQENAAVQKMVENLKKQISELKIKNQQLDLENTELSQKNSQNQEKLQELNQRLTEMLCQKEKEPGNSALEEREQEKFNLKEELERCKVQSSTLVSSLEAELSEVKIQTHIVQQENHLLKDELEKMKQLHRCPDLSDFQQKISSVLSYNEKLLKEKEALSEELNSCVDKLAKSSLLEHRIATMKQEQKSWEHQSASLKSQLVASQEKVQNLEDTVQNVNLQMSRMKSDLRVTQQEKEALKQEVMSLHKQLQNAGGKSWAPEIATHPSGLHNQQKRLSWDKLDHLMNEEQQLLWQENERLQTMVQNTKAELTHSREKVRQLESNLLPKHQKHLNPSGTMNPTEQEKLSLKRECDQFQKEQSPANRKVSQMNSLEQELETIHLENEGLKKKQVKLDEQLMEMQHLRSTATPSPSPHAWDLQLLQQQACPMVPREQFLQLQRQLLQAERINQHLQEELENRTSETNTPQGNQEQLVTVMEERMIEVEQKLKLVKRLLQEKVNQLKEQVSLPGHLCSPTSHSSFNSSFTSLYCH
UniProt Q8IX90: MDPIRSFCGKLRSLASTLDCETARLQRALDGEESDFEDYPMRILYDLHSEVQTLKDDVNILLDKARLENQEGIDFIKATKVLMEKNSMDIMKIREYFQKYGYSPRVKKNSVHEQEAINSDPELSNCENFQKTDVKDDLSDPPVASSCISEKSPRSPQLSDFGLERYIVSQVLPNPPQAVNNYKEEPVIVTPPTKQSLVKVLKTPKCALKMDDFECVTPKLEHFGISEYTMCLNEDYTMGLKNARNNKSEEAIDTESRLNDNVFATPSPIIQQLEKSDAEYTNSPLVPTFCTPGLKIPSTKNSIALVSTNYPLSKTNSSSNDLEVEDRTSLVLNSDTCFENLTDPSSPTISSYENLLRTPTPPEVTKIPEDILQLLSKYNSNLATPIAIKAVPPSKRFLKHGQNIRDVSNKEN

T1: V5-BirA(R118G)-ENKD1 (human) (UniProt Q9H0I2)
T1 sequence: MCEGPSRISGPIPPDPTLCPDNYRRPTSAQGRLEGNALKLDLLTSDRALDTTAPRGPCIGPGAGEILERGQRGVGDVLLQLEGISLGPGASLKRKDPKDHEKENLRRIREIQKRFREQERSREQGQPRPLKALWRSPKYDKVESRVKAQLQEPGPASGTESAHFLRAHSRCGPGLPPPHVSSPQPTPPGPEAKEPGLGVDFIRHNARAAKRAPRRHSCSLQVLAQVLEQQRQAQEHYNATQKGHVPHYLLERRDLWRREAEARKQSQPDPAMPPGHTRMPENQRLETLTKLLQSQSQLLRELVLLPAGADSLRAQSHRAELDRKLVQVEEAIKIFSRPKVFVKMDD

B1: CEP162 (protein, UniProt Q5TB80 1-1403)
chain: MANCSQEELDEEFEQFMKELSDDSFENSDKTARQSKKEMKKKDTVPWWITEDDFKDDGLLGTNVSYLKTKKTSQPVMEIEEESAEKIQFLKSSGTSLLSTDSLETNELVVSELNHSSLGVGLDTLEEQEEKEQFFARLEKGLTSSIDYSRLNKELDSNDSTHFKALHSNQANAELTDDEHENESKHEELAENYSDDFEDEYVGAPLTTKDEEMPSKENSKSEKISVPKQEEEKTGMLANVVLLDSLDSVAEVNLDEQDKITPKPRCLPEMTENEMTGTGVSYGQSSSDVEALHQAYCHIAHSLGDEDKQKIESNTVEDIKSSVKGHPQENEENSKNISTMESDLPTVEELMKPIRIDSFGISGFDLQPVSSEKVAERKETEFFSSLPLKMNPNILSQDSQHVNLFFDKNDENVILQKTTNESMENSCPQVTEVTATEEHVDKMYLNILRKKITVNSSSLSQDDKINKTYRSQLSSEEEGAVMGKQVPYKKARSAPPLLKRKPQSGLYASVRSSGYGKPSSPLKMFSTLEKKTSEDIIKSKNLRSISTSNQPRKKEILSGTKLIKPAALDKPAHKTESCLSTRKKSENPTETDSCIQFQTDSLGYCGENKEKKLLMFKRVQEAEDKWRGAQALIEQIKATFSEKEKELENKLEELKKQQEKELFKLNQDNYILQAKLSSFEETNKKQRWLHFGEAADPVTGEKLKQIQKEIQEQETLLQGYQQENERLYNQVKDLQEQNKKNEERMFKENQSLFSEVASLKEQMHKSRFLSQVVEDSEPTRNQNFTDLLAELRMAQKEKDSLLEDIKRLKQDKQALEVDFEKMKKERDQAKDQIAYVTGEKLYEIKILEETHKQEISRLQKRLQWYAENQELLDKDALRLREANEEIEKLKLEIEKLKAESGNPSIRQKIRLKDKAADAKKIQDLERQVKEMEGILKRRYPNSLPALILAASAAGDTVDKNTVEFMEKRIKKLEADLEGKDEDAKKSLRTMEQQFQKMKIQYEQRLEQQEQLLACKLNQHDSPRIKALEKELDDIKEAHQITVRNLEAEIDVLKHQNAELDVKKNDKDDEDFQSIEFQVEQAHAKAKLVRLNEELAAKKREIQDLSKTVERLQKDRRMMLSNQNSKGREEMSAKRAKKDVLHSSKGNANSFPGTLDSKLYQPHTFTDSHVSEVLQENYRLKNELEGLISEKNELKMKSEAVMNQFENSMRRVKEDTAAHIASLKASHQREIEKLLCQNAVENSSSKVAELNRKIATQEVLIRHFQSQVNELQSKQESLVVSEVREEILQKEITKLLEELREAKENHTPEMKHFVGLEKKIKQMEMRHAQREQELQQIIQQTHQVVETEQNKEVEKWKRLAQLKNRELEKFRTELDSILDVLRELHRQGVVVPVAFADEMNAPEY
B2: CKAP2L (protein, UniProt Q8IYA6 1-745)
chain: MVGPGPTAAAAVEERQRKLQEYLAAKGKLKSQNTKPYLKSKNNCQNQPPSKSTIRPKNDVTNHVVLPVKPKRSISIKLQPRPPNTAGSQKPKLEPPKLLGKRLTSECVSSNPYSKPSSKSFQQCEAGSSTTGELSRKPVGSLNIEQLKTTKQQLTDQGNGKCIDFMNNIHVENESLDNFLKETNKENLLDILTEPERKPDPKLYTRSKPKTDSYNQTKNSLVPKQALGKSSVNSAVLKDRVNKQFVGETQSRTFPVKSQQLSRGADLARPGVKPSRTVPSHFIRTLSKVQSSKKPVVKNIKDIKVNRSQYERPNETKIRSYPVTEQRVKHTKPRTYPSLLQGEYNNRHPNIKQDQKSSQVCIPQTSCVLQKSKAISQRPNLTVGRFNSAIPSTPSIRPNGTSGNKHNNNGFQQKAQTLDSKLKKAVPQNHFLNKTAPKTQADVTTVNGTQTNPNIKKKATAEDRRKQLEEWQKSKGKTYKRPPMELKTKRKVIKEMNISFWKSIEKEEEEKKAQLELSSKINNTLTECLNLIEGGVPSNEILNILSSIPEAEKFAKFWICKAKLLASKGTFDVIGLYEEAIKNGATPIQELRKVVLNILQDSNRTTEGITSDSLVAETSITSVEELAKKMESVKSCLSPKEREQVTATPRIAKAEQHNYPGIKLQIGPIPRINGMPEVQDMKFITPVRRSSRIERAVSRYPEMLQEHDLVVASLDELLEVEETKCFIFRRNEALPVTLGFQTPES

Each molecule was assayed against T1, V5-BirA(R118G)-ENKD1 (human) (assay: proximity labelling).

| binding | Molecule |
| --- | --- |
| binds | CSPP1 (from UniProt Q1MSJ5 1-1256) |
| binds | MAP4 (from UniProt P27816 1-1152) |
| binds | NIN (from UniProt Q8N4C6 1-2090) |
| binds | SKA3 (from UniProt Q8IX90 1-412) |

Target: T1, V5-BirA(R118G)-ENKD1 (human)
Assay: proximity labelling
Remark: another data set of the same source

| binding | Molecule |
| --- | --- |
| binds | B1 |
| binds | B2 |

Results are given in words; binding and its absence hold for the method and conditions named. In cells and extracts the contact can be indirect. A yes stands for co-enrichment or nearness to the bait. Other partners may have been found. Sequences can lack the tags named with a protein.
